Some of these results come from one statement about several compounds together.
Experiments:
[1] = system: Ctenocephalides felis; assay: Ctenocephalides felis residual contact assay; details: at 48 hours; adult C. felis
[2] = system: Ctenocephalides felis; details: at 48 hours; compound in bovine blood

For `CS(=O)(=O)CC(=O)N1CC2(C1)OCc1cc(C3=NSC(c4cc(Cl)c(F)c(Cl)c4)(C(F)(F)F)C3)ccc12` (stereo not drawn) [Compound 5, 1-[6-[5-(3,5-dichloro-4-fluoro-phenyl)-5-(trifluoromethyl)-4H-isothiazol-3-yl]spiro[1H-isobenzofuran-3,3′-azetidine]-1′-yl]-2-methylsulfonyl-ethanone], the “concentration at which active, flea residual contact” value [1] was “below 50 ppm”.
For `CNC(=O)N1CC2(C1)OCc1cc(C3=NSC(c4cc(Cl)c(F)c(Cl)c4)(C(F)(F)F)C3)ccc12` (stereo not drawn) [Compound 41, 6-[5-(3,5-dichloro-4-fluoro-phenyl)-5-(trifluoromethyl)-4H-isothiazol-3-yl]-N-methyl-spiro[1H-isobenzofuran-3,3′-azetidine]-1′-carboxamide], the “concentration at which active, flea ingestion” value (shortened to “concentration … flea ingestion”) [2] was “below 50 ppm”.
With `O=C(C1CCOCC1)N1CC2(C1)OCc1cc(C3=NSC(c4cc(Cl)c(F)c(Cl)c4)(C(F)(F)F)C3)ccc12` (stereo not drawn) [Compound 19, [6-[5-(3,5-dichloro-4-fluoro-phenyl)-5-(trifluoromethyl)-4H-isothiazol-3-yl]spiro[1H-isobenzofuran-3,3′-azetidine]-1′-yl]-tetrahydropyran-4-yl-methanone] the “concentration … flea ingestion” value [2] was “below 50 ppm”.
With `O=C(c1ccccc1)N1CC2(C1)OCc1cc(C3=NSC(c4cc(Cl)c(F)c(Cl)c4)(C(F)(F)F)C3)ccc12` (stereo not drawn) [Compound 4, [6-[5-(3,5-dichloro-4-fluoro-phenyl)-5-(trifluoromethyl)-4H-isothiazol-3-yl]spiro[1H-isobenzofuran-3,3′-azetidine]-1′-yl]-phenyl-methanone] the “concentration at which active, flea residual contact” value [1] was “below 50 ppm”.
In the case of `CCCCN1CC2(C1)OCc1cc(C3=NSC(c4cc(Cl)c(F)c(Cl)c4)(C(F)(F)F)C3)ccc12` (stereo not drawn) [Compound 20, 1′-butyl-6-[5-(3,5-dichloro-4-fluoro-phenyl)-5-(trifluoromethyl)-4H-isothiazol-3-yl]spiro[1H-isobenzofuran-3,3′-azetidine]], the “concentration … flea ingestion” value [2] is reported as “below 50 ppm”.
For `O=C(NCC(F)(F)F)N1CC2(C1)OCc1cc(C3=NSC(c4cc(Cl)c(F)c(Cl)c4)(C(F)(F)F)C3)ccc12` (stereo not drawn) [Compound 2, 6-[5-(3,5-dichloro-4-fluoro-phenyl)-5-(trifluoromethyl)-4H-isothiazol-3-yl]-N-(2,2,2-trifluoroethyl)spiro[1H-isobenzofuran-3,3′-azetidine]-1′-carboxamide], the “concentration at which active, flea residual contact” value [1] was “below 50 ppm” and the “concentration … flea ingestion” value [2] was “below 50 ppm”.
`O=C(CC(F)(F)F)N1CC2(C1)OCc1cc(C3=NSC(c4cc(Cl)c(F)c(Cl)c4)(C(F)(F)F)C3)ccc12` (stereo not drawn) [Compound 1, 1-[6-[5-(3,5-dichloro-4-fluoro-phenyl)-5-(trifluoromethyl)-4H-isothiazol-3-yl]spiro[1H-isobenzofuran-3,3′-azetidine]-1′-yl]-3,3,3-trifluoro-propan-1-one] was tested, and the “concentration at which active, flea residual contact” value [1] was “below 50 ppm” and the “concentration … flea ingestion” value [2] was “below 50 ppm”.

Source: patent US9420793B2, “Antiparasitic compounds” (Avista Pharma Solutions, priority 2015, dated 2016)
